Results are given in words; binding and its absence hold for the method and conditions named. In cells and extracts the contact can be indirect. Here binding means that the protein was enriched with, or labelled near, the bait; the list need not be complete.
How the values were obtained:
[1] = target: FLAG-IFITM3 G95L (human) (UniProt Q01628); test: affinity purification with mass spectrometry; anti-FLAG (M2) immunoprecipitation from whole cell lysates (1% Triton X-100, 150 mM NaCl) of HEK293T stably expressing FLAG-IFITM3 WT, G95L or empty vector; TMT-labelled proteomics; abundance ratio WT/G95L
[2] = target: FLAG-IFITM3 WT (human) (UniProt Q01628); test: as above

The chains behind the UniProt entries cited, without tags or fusion partners. Where a name states a change or a piece, a line headed by the entry shows the natural chain unless it says otherwise.
UniProt Q01628: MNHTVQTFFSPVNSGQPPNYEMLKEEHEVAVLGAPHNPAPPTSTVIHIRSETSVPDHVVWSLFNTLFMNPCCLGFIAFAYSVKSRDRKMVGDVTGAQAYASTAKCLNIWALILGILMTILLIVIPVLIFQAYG
UniProt P13164: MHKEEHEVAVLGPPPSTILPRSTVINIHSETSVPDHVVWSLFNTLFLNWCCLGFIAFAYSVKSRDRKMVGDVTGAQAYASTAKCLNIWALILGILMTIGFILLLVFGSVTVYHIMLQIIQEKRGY

binding [1]: binds | binding [2]: binds
Substance: endogenous IFITM1 (from UniProt P13164 1-125)
